Experimental data taken from patent US7897588B2, “Agents and methods for enhancing bone formation” (The Regents of the University of California, priority 2003, dated 2011).

Key:
[1] = test system: M2-10B4 mouse marrow stromal cell line; test: Matrix mineralization in M2 cells (von Kossa staining, 45Ca incorporation assay); format: cell-based; settings: 22R+20S, 10 days, SC-560 10 μM, ACA 25 μM, AACOCF3 20 μM, PD98059 20 μM
Protocol: (§1) Cells: M2-10B4 mouse marrow stromal cell line obtained from American Type Culture Collection (ATCC, Rockville, Md., U.S.A.) was derived from bone marrow stromal cells of a (C57BL/6J×C3H/HeJ) F1 mouse, and support human and murine myelopoiesis in long-term cultures (as per ATCC) and have the ability to differentiate into osteoblastic and adipocytic cells. Unless specified, these cells were cultured in RPMI 1640 containing 10% heat-inactivated FBS, and supplemented with 1 mM sodium pyruvate, 100 U/ml penicillin, and 100 […] (all from Irvine Scientific).
Von Kossa and oil red O staining—Matrix mineralization in cell monolayers was detected by silver nitrate staining as previously described. […]
^45Ca incorporation assay—Matrix mineralization in cell monolayers was quantified using the ^45Ca incorporation assay as previously described. […]
M2 cells were treated with control vehicle (C) or a combination of 22R and 20S oxysterols at increasing concentrations. After 14 days, matrix mineralization in cultures was quantified using a ^45Ca incorporation assay. […]
(A) M2 cells at confluence were pretreated for 4 hours with control vehicle (C) or 10 μM COX-1 inhibitor SC-560 (SC) in osteogenic medium as described earlier. […] After 3 days, ALP activity was measured as described earlier. […] After 3 days, ALP activity was measured as previously described. […]

osteocalcin mRNA = test: Northern blot for osteocalcin mRNA in M2 cells; format: cell-based, mouse; settings: 22R+20S, SC-560 20 μM, 8 days, PD98059
Protocol: RNA isolation and Northern blot analysis—Following treatment of cells under appropriate experimental conditions, total RNA was isolated using the RNA isolation kit from Stratagene (La Jolla, Calif., U.S.A.). Total RNA ([…]) was run on a 1% agarose/formaldehyde gel and transferred to Duralon-UV membranes (Strategene, Calif., U.S.A.) and cross-linked with UV light. […] The extent of gene induction was determined by densitometry.
M2 cells at confluence were treated with control vehicle (C) or a combination of 22R and 20S oxysterols (5 μM each) in osteogenic medium. After 4 and 8 days, total RNA from duplicate samples was isolated and analyzed for osteocalcin (Osc) and 28S rRNA expression by Northern blotting as described. […]
(A) M2 cells at confluence were pretreated for 4 hours with control vehicle (C) or 10 μM COX-1 inhibitor SC-560 (SC) in osteogenic medium as described earlier. […] After 3 days, ALP activity was measured as described earlier. […] (B) M2 cells were treated as described in (A) and after 10 days matrix mineralization in cultures was quantified by a ^45Ca incorporation assay as described earlier. […] After 8 days, total RNA was isolated and analyzed for osteocalcin (Osc) and 18S rRNA expression by Northern blotting as previously described. […] After 3 days, ALP activity was measured as previously described. […]

marrow stromal cells = test: Osteogenic activity of marrow stromal cells (alkaline phosphatase, mineral formation), overall; format: cell-based, mouse; settings: M2 cells; SC-560 at 1-20 μM; NS-398 at 20 μM
Protocol: Next, a combination of 22R and 20S oxysterols (RS, 2.5 μM each) were added in the presence or absence of SC as indicated. After 3 days, ALP activity was measured as described earlier. […] (B) M2 cells were treated as described in (A) and after 10 days matrix mineralization in cultures was quantified by a ^45Ca incorporation assay as described earlier. Results from a representative of three experiments are shown, reported as the mean±SD of quadruplicate determinations, normalized to protein concentration. (C) M2 cells were pretreated with 20 μM SC for 4 hours, followed by the addition of RS in the presence or absence of SC as described above. After 8 days, total RNA was isolated and analyzed for osteocalcin (Osc) and 18S rRNA expression by Northern blotting as previously described. Data from densitometric analysis of the Northern blot is shown in (D) as the average of duplicate samples, normalized to 18S rRNA. (E) M2 cells at confluence were pretreated for 2 hours with control vehicle (C), or PLA2 inhibitors ACA (25 μM) and AACOCF3 (AAC, 20 μM), in osteogenic medium. Next, a combination of 22R and 20S oxysterols (RS, 2.5 μM) was added in the presence or absence of the inhibitors as indicated. After 3 days, ALP activity was measured as previously described. […] After 10 days, matrix minerliazation in cultures was quantified using a ^45Ca incorporation assay as previously described. […]

[2] = test system: M2-10B4 mouse marrow stromal cell line; test: Alkaline phosphatase (ALP) activity assay in M2 cells; format: cell-based; settings: 22R+20S, SC-560 10 μM, ACA 25 μM, AACOCF3 20 μM, PD98059 20 μM
Protocol: as §1, with “Scientific). […]” for “Scientific).”
Test 1: M2 cells at confluence were treated with control vehicle (C), or 10 μM oxysterols, in an osteogenic medium consisting of RPMI 1640 to which 10% fetal bovine serum (FBS), 50 μg/ml ascorbate and 3 mM beta-glycerophosphate (βGP) were added. After 3 days of incubation, alkaline phosphatase (ALP) activity was determined in cell homogenates by a colorimetric assay. […]
M2 cells at confluence were treated in osteogenic medium with control vehicle (C) or a combination of 22R and 20S oxysterols, at the indicated concentrations. ALP activity was measured after 3 days as described above. […]
Test 2: M2 cells were grown in RPMI medium containing 10% fetal bovine serum (FBS). […] After 4 days, alkaline phosphatase activity was determined in whole cell lysates and normalized to protein. […]

COc1ccc(-n2nc(C(F)(F)F)cc2-c2ccc(Cl)cc2)cc1 [SC-560]
inhibition of oxysterol-induced mineralization [1]: inhibited
inhibition of oxysterol-induced osteocalcin gene expression (osteocalcin mRNA): inhibited
inhibition of the osteogenic effects of oxysterol combinations (marrow stromal cells): significantly inhibited
inhibition of oxysterol-induced alkaline phosphatase activity [2]: inhibited
